Like-named read-outs stand apart in the source and are kept apart here. No constants are given. Whether binding was seen depends on the method and setting. In cells and extracts the contact can be indirect. These calls come from enrichment with a bait or labelling near it, and not all partners need be listed.

The chains behind the UniProt entries cited, without tags or fusion partners.
UniProt P03146: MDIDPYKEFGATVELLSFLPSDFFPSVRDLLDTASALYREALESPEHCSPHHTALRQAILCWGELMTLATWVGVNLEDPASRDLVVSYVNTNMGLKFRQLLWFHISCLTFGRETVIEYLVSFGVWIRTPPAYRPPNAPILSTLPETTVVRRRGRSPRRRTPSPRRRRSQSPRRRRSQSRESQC
UniProt Q9H3S7: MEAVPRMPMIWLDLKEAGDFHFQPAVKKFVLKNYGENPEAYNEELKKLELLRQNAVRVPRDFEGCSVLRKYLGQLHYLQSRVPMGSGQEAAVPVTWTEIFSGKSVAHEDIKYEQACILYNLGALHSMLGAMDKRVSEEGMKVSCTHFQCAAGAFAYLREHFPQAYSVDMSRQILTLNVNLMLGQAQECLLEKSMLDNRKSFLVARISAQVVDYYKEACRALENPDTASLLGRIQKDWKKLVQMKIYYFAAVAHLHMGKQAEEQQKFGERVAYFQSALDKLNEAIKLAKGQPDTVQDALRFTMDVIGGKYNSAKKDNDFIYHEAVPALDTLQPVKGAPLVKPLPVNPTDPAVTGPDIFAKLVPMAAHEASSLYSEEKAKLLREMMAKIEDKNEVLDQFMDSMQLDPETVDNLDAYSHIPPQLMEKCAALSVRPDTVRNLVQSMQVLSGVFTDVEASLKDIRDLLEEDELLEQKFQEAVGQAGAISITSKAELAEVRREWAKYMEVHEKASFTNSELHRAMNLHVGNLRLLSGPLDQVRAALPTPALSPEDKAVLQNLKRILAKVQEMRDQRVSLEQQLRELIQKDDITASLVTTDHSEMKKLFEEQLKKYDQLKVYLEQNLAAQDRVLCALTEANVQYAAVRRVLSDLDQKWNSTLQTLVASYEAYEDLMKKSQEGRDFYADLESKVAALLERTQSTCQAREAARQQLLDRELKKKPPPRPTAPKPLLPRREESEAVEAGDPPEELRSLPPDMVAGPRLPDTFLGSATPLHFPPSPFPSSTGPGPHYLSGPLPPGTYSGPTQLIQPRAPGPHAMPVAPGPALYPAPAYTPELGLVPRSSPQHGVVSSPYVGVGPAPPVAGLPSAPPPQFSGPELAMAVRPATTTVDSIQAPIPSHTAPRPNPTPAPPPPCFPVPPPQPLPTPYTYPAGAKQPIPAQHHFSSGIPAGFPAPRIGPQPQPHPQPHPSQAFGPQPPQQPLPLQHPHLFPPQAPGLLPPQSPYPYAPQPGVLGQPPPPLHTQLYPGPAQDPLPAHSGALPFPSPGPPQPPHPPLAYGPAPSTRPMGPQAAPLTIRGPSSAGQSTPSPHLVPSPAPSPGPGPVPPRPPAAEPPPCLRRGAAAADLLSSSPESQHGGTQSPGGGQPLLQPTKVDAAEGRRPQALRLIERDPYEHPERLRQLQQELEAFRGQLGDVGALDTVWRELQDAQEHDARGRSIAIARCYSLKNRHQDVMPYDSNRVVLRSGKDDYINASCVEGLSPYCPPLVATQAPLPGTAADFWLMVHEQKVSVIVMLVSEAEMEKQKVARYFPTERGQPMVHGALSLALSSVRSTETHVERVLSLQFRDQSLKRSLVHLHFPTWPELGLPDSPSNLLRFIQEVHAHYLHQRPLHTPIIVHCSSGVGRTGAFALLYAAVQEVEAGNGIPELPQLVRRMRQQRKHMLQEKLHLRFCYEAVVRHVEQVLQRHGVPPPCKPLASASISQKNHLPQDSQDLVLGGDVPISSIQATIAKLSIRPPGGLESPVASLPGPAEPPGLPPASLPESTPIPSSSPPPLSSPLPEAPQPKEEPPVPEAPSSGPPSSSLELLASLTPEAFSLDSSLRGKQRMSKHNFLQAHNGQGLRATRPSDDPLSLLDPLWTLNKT
UniProt Q99816: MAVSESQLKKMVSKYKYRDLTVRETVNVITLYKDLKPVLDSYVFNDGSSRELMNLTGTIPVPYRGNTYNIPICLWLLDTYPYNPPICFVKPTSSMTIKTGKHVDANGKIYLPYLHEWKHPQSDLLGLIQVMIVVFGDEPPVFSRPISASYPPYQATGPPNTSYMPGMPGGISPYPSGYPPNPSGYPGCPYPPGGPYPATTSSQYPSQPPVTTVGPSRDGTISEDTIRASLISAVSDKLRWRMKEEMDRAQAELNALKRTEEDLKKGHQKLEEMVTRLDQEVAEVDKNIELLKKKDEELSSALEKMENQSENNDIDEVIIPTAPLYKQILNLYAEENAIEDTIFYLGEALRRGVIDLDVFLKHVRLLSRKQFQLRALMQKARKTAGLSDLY

Assay [1] addresses N-terminal tagged Myc-HBc (hepatitis B virus capsid protein) (Hepatitis B virus) (UniProt P03146). Kind of assay: affinity purification with mass spectrometry.
Assay [2] has the same target. Kind of assay: affinity purification with mass spectrometry. This is another data set of the same source.

For PTPN23 (from UniProt Q9H3S7 1-1636), the binding entry in assay [1] is on record as “binds”. The same measure, in the same setting: with “tumor susceptibility gene 101 (TSG101), endogenous (from UniProt Q99816 1-390)” the entry was “binds”.

B1: EHD1 (protein, UniProt Q9H4M9 1-534)
chain: MFSWVSKDARRKKEPELFQTVAEGLRQLYAQKLLPLEEHYRFHEFHSPALEDADFDNKPMVLLVGQYSTGKTTFIRHLIEQDFPGMRIGPEPTTDSFIAVMHGPTEGVVPGNALVVDPRRPFRKLNAFGNAFLNRFMCAQLPNPVLDSISIIDTPGILSGEKQRISRGYDFAAVLEWFAERVDRIILLFDAHKLDISDEFSEVIKALKNHEDKIRVVLNKADQIETQQLMRVYGALMWSLGKIINTPEVVRVYIGSFWSHPLLIPDNRKLFEAEEQDLFKDIQSLPRNAALRKLNDLIKRARLAKVHAYIISSLKKEMPNVFGKESKKKELVNNLGEIYQKIEREHQISPGDFPSLRKMQELLQTQDFSKFQALKPKLLDTVDDMLANDIARLMVMVRQEESLMPSQVVKGGAFDGTMNGPFGHGYGEGAGEGIDDVEWVVGKDKPTYDEIFYTLSPVNGKITGANAKKEMVKSKLPNTVLGKIWKLADVDKDGLLDDEEFALANHLIKVKLEGHELPADLPPHLVPPSKRRHE
For the molecule B1, in assay [2], the binding result is “binds”.

B2: LMAN1 (protein, UniProt P49257 31-510)
chain: DGVGGDPAVALPHRRFEYKYSFKGPHLVQSDGTVPFWAHAGNAIPSSDQIRVAPSLKSQRGSVWTKTKAAFENWEVEVTFRVTGRGRIGADGLAIWYAENQGLEGPVFGSADLWNGVGIFFDSFDNDGKKNNPAIVIIGNNGQIHYDHQNDGASQALASCQRDFRNKPYPVRAKITYYQNTLTVMINNGFTPDKNDYEFCAKVENMIIPAQGHFGISAATGGLADDHDVLSFLTFQLTEPGKEPPTPDKEISEKEKEKYQEEFEHFQQELDKKKEEFQKGHPDLQGQPAEEIFESVGDRELRQVFEGQNRIHLEIKQLNRQLDMILDEQRRYVSSLTEEISKRGAGMPGQHGQITQQELDTVVKTQHEILRQVNEMKNSMSETVRLVSGMQHPGSAGGVYETTQHFIDIKEHLHIVKRDIDNLVQRNMPSNEKPKCPELPPFPSCLSTVHFIIFVVVQTVLFIGYIMYRSQQEAAAKKFF
For B2, the binding result in assay [2] is listed as “binds”.

B3: CHP1 (protein, UniProt Q99653 1-195)
chain: MGSRASTLLRDEELEEIKKETGFSHSQITRLYSRFTSLDKGENGTLSREDFQRIPELAINPLGDRIINAFFPEGEDQVNFRGFMRTLAHFRPIEDNEKSKDVNGPEPLNSRSNKLHFAFRLYDLDKDEKISRDELLQVLRMMVGVNISDEQLGSIADRTIQEADQDGDSAISFTEFVKVLEKVDVEQKMSIRFLH
With B3, the binding result in assay [2] is listed as “binds”.

Source of the values: publication PMC10208485.
